In publication PMC11112123:
These are yes or no findings as the source states them, for the method shown. Binding seen in cells or lysates may run through a third protein. These calls come from enrichment with a bait or labelling near it, and not all partners need be listed.

The chains behind the UniProt entries cited, without tags or fusion partners.
UniProt Q8WVS4: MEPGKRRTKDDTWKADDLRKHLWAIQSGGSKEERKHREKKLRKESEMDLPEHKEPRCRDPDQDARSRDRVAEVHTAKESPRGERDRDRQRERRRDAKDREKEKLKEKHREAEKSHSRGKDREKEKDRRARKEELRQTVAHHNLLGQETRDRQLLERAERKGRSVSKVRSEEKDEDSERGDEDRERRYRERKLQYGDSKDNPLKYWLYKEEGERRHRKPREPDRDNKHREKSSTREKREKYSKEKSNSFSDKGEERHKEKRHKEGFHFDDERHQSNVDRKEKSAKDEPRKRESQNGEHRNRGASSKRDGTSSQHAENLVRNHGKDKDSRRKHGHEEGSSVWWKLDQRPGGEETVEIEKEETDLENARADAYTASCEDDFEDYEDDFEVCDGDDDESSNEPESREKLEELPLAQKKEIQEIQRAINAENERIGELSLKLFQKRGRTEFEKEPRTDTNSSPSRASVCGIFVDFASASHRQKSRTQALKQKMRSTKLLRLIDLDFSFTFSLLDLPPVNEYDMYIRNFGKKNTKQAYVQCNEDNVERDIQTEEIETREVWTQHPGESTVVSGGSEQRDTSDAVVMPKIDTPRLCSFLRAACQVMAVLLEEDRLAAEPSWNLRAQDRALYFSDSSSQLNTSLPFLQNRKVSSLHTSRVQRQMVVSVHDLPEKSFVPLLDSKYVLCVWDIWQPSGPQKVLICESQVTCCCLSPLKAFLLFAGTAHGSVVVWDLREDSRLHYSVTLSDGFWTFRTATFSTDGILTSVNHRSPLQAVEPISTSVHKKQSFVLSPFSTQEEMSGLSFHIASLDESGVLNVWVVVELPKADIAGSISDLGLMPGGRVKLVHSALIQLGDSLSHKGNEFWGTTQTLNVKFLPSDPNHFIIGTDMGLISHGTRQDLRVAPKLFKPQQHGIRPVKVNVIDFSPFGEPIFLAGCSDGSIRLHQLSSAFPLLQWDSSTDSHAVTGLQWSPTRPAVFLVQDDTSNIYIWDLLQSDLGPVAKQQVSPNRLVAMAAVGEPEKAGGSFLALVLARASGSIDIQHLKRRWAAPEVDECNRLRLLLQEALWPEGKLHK

Molecular target: HA–WDR60 (human) (UniProt Q8WVS4)
Experiment: affinity purification with mass spectrometry; HA–WDR60 on HA–agarose beads from transfected RPE1 WT and CEP170 KO cells, trypsin digest, TMT labelling; abundance against HA–GFP; three independent experiments

B1: chaperone NUDCD1 (protein, UniProt Q96RS6 1-583)
chain: MEVAANCSLRVKRPLLDPRFEGYKLSLEPLPCYQLELDAAVAEVKLRDDQYTLEHMHAFGMYNYLHCDSWYQDSVYYIDTLGRIMNLTVMLDTALGKPREVFRLPTDLTACDNRLCASIHFSSSTWVTLSDGTGRLYVIGTGERGNSASEKWEIMFNEELGDPFIIIHSISLLNAEEHSIATLLLRIEKEELDMKGSGFYVSLEWVTISKKNQDNKKYEIIKRDILRGKSVPHYAAIEPDGNGLMIVSYKSLTFVQAGQDLEENMDEDISEKIKEPLYYWQQTEDDLTVTIRLPEDSTKEDIQIQFLPDHINIVLKDHQFLEGKLYSSIDHESSTWIIKESNSLEISLIKKNEGLTWPELVIGDKQGELIRDSAQCAAIAERLMHLTSEELNPNPDKEKPPCNAQELEECDIFFEESSSLCRFDGNTLKTTHVVNLGSNQYLFSVIVDPKEMPCFCLRHDVDALLWQPHSSKQDDMWEHIATFNALGYVQASKRDKKFFACAPNYSYAALCECLRRVFIYRQPAPMSTVLYNRKEGRQVGQVAKQQVASLETNDPILGFQATNERLFVLTTKNLFLIKVNTEN
binding: binds
